Results: patent publication US20200276130A1
Results are given in words; binding and its absence hold for the method and conditions named. In cells and extracts the contact can be indirect. Some entries that bind do so weakly or less than the wild type.

Sequences of proteins named here, by UniProt entry; tags and fusion partners are left off. A change or cut given only in a name is not applied to a line headed by its entry. A line that says so, or that is headed by a name, gives the form on record, which may keep a tag or linker.
UniProt Q86X55: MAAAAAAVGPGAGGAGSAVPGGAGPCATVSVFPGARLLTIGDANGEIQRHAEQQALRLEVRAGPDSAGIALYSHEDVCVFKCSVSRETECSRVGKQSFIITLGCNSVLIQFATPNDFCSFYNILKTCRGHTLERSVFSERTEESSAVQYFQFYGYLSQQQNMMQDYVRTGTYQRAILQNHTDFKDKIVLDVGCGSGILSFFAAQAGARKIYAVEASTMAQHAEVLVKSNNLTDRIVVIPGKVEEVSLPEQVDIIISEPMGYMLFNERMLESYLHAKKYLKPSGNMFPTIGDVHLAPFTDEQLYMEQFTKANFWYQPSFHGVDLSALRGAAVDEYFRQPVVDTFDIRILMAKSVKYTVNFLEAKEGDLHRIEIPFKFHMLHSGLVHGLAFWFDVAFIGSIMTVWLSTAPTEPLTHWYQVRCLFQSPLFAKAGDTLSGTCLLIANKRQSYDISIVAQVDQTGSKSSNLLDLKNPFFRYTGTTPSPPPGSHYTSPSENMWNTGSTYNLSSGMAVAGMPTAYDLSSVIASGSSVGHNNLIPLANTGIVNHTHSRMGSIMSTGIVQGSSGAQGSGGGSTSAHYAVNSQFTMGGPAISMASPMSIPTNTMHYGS
UniProt P11940: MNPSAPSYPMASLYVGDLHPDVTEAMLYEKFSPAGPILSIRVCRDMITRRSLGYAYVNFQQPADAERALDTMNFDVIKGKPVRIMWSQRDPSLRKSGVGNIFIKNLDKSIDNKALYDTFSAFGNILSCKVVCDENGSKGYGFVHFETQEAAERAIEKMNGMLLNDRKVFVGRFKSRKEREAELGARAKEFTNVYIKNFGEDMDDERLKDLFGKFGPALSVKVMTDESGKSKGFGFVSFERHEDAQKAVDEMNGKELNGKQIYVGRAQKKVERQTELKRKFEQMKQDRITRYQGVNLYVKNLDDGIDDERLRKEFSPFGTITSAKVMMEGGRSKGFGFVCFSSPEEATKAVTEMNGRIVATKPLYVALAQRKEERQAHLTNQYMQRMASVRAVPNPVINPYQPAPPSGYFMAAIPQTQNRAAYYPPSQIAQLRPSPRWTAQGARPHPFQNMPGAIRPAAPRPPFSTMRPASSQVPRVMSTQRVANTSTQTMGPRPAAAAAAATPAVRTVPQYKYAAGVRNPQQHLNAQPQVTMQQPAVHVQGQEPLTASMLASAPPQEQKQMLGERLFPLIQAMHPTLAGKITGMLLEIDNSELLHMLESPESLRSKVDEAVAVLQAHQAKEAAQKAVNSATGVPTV
Flag-tagged PKM1 (pyruvate kinase M1) (P14618, form named): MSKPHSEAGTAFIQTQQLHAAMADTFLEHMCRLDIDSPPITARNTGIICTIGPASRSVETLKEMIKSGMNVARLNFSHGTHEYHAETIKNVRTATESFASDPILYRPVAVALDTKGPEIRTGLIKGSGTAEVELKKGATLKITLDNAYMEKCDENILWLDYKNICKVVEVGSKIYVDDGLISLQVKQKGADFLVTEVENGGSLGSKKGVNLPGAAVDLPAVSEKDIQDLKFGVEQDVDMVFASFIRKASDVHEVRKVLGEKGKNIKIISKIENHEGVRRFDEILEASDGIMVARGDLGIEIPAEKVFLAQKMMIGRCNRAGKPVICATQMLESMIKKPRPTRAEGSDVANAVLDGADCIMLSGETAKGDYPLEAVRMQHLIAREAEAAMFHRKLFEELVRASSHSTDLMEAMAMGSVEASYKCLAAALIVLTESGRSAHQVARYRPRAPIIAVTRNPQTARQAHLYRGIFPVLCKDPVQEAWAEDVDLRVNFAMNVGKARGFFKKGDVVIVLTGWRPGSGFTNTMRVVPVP

Tests used:
[1] = biological target: GST-CARM1 fusion protein (glutathione S-transferase tagged co-activator associated arginine methyltransferase 1) (UniProt Q86X55); experiment: GST pull-down, anti-GST and anti-Flag Western blot
[2] = biological target: GST-CARM1 fusion protein (glutathione S-transferase tagged co-activator associated arginine methyltransferase 1) (UniProt Q86X55); experiment: GST pull-down
[3] = biological target: GST-CARM1 fusion protein (glutathione S-transferase tagged co-activator associated arginine methyltransferase 1) (UniProt Q86X55); experiment: GST pull-down with purified recombinant proteins, anti-Flag Western blot

binding [1]	binding [2]	binding [3]	Substance
binds	–	–	Flag-tagged PABP1 (from UniProt P11940 1-636)
binds	binds	binds	Flag-tagged PKM1 (pyruvate kinase M1) (from UniProt P14618 1-531) (enzyme)
